PMC5438708
No constants are given. Whether binding was seen depends on the method and setting. Binding seen in cells or lysates may run through a third protein. Some entries that bind do so weakly or less than the wild type.

T1: α2,3-sialyltransferase type I (ST3GalI), human (human (endogenous in ES2)) (UniProt Q11201)
T1 sequence: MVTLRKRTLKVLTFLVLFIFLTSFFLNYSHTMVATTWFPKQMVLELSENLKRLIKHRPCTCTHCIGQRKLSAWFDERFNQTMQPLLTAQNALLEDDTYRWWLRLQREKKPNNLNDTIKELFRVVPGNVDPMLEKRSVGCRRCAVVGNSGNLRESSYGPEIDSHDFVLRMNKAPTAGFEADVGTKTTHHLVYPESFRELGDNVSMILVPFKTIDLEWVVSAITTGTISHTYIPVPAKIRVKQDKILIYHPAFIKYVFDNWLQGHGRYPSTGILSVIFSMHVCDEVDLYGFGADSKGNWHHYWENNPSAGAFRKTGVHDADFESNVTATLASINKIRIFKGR


Legend:
[1] = biological target: T1, α2,3-sialyltransferase type I (ST3GalI), human (human (endogenous in ES2)); assay: co-IP; endogenous proteins from ES2 cell lysates (scramble and ST3GalI shRNA cells); Pierce Crosslink IP kit, antibody (Erbitux for EGFR) cross-linked to protein A/G agarose; lysis buffer 0.025 M Tris, 0.15 M NaCl, 1 mM EDTA, 1% NP40, 5% glycerol; overnight at 4°C; western blot
[2] = biological target: Epidermal growth factor receptor (EGFR), human (human (endogenous in ES2)) (UniProt P00533); assay: as above

Row | binding [1] | binding [2] | Molecule
1 | binds | – | Epidermal growth factor receptor (EGFR), human (from UniProt P00533 25-1210)
2 | – | binds | α2,3-sialyltransferase type I (ST3GalI), human (enzyme, UniProt Q11201 1-340) MVTLRKRTLKVLTFLVLFIFLTSFFLNYSHTMVATTWFPKQMVLELSENLKRLIKHRPCTCTHCIGQRKLSAWFDERFNQTMQPLLTAQNALLEDDTYRWWLRLQREKKPNNLNDTIKELFRVVPGNVDPMLEKRSVGCRRCAVVGNSGNLRESSYGPEIDSHDFVLRMNKAPTAGFEADVGTKTTHHLVYPESFRELGDNVSMILVPFKTIDLEWVVSAITTGTISHTYIPVPAKIRVKQDKILIYHPAFIKYVFDNWLQGHGRYPSTGILSVIFSMHVCDEVDLYGFGADSKGNWHHYWENNPSAGAFRKTGVHDADFESNVTATLASINKIRIFKGR
